Measured values taken from publication PMC12464768.
These are yes or no findings as the source states them, for the method shown. In cells and extracts the contact can be indirect. Some entries that bind do so weakly or less than the wild type. Where a sequence is shown, tags or fusion partners need not be part of it.

Amino acid sequences for entries named in this document (tags omitted).
UniProt P35372: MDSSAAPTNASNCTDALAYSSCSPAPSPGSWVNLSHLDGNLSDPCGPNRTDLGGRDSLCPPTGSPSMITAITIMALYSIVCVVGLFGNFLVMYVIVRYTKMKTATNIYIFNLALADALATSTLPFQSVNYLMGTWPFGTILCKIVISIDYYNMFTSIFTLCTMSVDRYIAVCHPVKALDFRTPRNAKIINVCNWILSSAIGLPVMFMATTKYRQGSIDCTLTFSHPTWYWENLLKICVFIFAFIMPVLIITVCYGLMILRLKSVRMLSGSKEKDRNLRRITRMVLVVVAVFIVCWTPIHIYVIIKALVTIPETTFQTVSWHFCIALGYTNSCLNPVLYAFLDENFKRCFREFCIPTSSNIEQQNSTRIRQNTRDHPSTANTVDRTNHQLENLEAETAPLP
UniProt Q9C0D3: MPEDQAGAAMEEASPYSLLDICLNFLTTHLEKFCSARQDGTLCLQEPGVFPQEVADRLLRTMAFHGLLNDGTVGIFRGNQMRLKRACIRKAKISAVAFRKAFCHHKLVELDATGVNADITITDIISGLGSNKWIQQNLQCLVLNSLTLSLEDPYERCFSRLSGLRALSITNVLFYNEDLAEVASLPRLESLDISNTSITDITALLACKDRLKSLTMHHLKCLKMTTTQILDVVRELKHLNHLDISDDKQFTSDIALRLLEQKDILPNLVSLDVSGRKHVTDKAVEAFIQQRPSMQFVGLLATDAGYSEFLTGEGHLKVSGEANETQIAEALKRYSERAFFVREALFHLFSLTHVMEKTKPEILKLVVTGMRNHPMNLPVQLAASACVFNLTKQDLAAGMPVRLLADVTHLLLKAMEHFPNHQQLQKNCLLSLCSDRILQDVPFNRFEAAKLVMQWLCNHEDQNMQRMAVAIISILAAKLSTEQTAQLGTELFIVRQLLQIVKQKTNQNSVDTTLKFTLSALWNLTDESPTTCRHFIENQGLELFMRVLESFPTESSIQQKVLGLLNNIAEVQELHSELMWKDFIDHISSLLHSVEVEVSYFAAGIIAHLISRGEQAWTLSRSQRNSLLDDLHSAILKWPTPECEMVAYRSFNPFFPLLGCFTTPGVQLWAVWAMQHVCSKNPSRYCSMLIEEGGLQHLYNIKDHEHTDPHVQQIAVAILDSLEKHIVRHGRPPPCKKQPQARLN
UniProt P32121: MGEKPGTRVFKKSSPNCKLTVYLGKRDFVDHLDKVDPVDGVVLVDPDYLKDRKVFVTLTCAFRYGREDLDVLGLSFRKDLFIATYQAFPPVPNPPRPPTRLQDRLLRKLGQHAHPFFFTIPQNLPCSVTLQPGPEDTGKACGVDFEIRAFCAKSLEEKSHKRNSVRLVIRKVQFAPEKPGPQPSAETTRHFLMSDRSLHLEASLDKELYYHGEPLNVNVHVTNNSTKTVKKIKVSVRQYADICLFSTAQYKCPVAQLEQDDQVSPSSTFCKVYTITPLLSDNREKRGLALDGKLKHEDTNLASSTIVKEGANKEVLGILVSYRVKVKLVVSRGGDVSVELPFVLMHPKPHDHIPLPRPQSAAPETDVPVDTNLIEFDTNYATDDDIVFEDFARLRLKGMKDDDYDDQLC

Key:
[1] = molecular target: Flag-tagged human μ-opioid receptor (human) (UniProt P35372); test: proximity ligation; HEK293T transfected with Flag-tagged hMOR and HA-tagged proteins, fixed and subjected to PLA imaging
[2] = molecular target: Flag-tagged human μ-opioid receptor (human) (UniProt P35372); test: co-IP; HEK293T transfected with Flag-tagged hMOR and HA-tagged interacting proteins; lysates immunoprecipitated with an anti-Flag antibody, eluates blotted with an anti-HA antibody

HA-tagged ZYG11B (from UniProt Q9C0D3 1-744)
binding [1]: binds | binding [2]: binds

HA-tagged β-arrestin-2 (from UniProt P32121 1-409)
binding [1]: binds | binding [2]: binds

B1: HA-tagged Septin7 (protein, UniProt Q16181 1-437)
chain: MSVSARSAAAEERSVNSSTMVAQQKNLEGYVGFANLPNQVYRKSVKRGFEFTLMVVGESGLGKSTLINSLFLTDLYSPEYPGPSHRIKKTVQVEQSKVLIKEGGVQLLLTIVDTPGFGDAVDNSNCWQPVIDYIDSKFEDYLNAESRVNRRQMPDNRVQCCLYFIAPSGHGLKPLDIEFMKRLHEKVNIIPLIAKADTLTPEECQQFKKQIMKEIQEHKIKIYEFPETDDEEENKLVKKIKDRLPLAVVGSNTIIEVNGKRVRGRQYPWGVAEVENGEHCDFTILRNMLIRTHMQDLKDVTNNVHYENYRSRKLAAVTYNGVDNNKNKGQLTKSPLAQMEEERREHVAKMKKMEMEMEQVFEMKVKEKVQKLKDSEAELQRRHEQMKKNLEAQHKELEEKRRQFEDEKANWEAQQRILEQQNSSRTLEKNKKKGKIF
binding [1]: binds | binding [2]: binds
